# Results are given in words; binding and its absence hold for the method and conditions named. In cells and extracts the contact can be indirect. Some entries that bind do so weakly or less than the wild type. Tags and fused reporters may be left off the sequences shown.
# T1: Myc-tagged-CYLD (UniProt Q9NQC7)
# T1 sequence: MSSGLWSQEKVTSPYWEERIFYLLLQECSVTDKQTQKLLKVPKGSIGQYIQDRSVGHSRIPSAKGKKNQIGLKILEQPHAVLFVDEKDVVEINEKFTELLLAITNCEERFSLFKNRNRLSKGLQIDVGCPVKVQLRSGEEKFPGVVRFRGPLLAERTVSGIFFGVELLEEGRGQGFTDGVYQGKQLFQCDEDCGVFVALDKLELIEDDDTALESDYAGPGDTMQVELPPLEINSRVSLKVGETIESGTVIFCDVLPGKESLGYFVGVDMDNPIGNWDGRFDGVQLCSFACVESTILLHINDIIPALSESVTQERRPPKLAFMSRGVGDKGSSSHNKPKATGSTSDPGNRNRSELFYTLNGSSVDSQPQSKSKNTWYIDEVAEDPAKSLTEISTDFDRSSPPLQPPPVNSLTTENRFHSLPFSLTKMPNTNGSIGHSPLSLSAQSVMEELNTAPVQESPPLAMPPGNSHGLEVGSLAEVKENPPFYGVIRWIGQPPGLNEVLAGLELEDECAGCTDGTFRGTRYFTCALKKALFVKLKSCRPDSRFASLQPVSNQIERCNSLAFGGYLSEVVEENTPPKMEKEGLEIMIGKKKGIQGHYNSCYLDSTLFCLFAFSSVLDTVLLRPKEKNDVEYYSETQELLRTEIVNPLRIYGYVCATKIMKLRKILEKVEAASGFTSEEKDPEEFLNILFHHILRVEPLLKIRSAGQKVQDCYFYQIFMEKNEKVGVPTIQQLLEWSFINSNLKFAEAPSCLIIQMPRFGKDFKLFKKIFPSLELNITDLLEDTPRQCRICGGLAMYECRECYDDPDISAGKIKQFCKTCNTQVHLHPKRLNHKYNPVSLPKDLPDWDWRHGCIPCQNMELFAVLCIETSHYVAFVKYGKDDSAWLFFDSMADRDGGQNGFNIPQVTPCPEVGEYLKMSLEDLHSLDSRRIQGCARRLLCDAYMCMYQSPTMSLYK
# B1: Flag-tagged-Bcl-3 (protein, UniProt P20749 1-454)
# chain: MPRCPAGAMDEGPVDLRTRPKAAGLPGAALPLRKRPLRAPSPEPAAPRGAAGLVVPLDPLRGGCDLPAVPGPPHGLARPEALYYPGALLPLYPTRAMGSPFPLVNLPTPLYPMMCPMEHPLSADIAMATRADEDGDTPLHIAVVQGNLPAVHRLVNLFQQGGRELDIYNNLRQTPLHLAVITTLPSVVRLLVTAGASPMALDRHGQTAAHLACEHRSPTCLRALLDSAAPGTLDLEARNYDGLTALHVAVNTECQETVQLLLERGADIDAVDIKSGRSPLIHAVENNSLSMVQLLLQHGANVNAQMYSGSSALHSASGRGLLPLVRTLVRSGADSSLKNCHNDTPLMVARSRRVIDILRGKATRPASTSQPDPSPDRSANTSPESSSRLSSNGLLSASPSSSPSQSPPRDPPGFPMAPPNFFLPSPSPPAFLPFAGVLRGPGRPVPPSPAPGGS
# Biological target: T1, Myc-tagged-CYLD
# Assay: co-IP; 293T cells transfected with Bcl-3 and CYLD for 48 h; lysates immunoprecipitated with anti-Myc or anti-Flag antibody, control IgG beside; immunoblotting
binder,measurement,value
B1,binding,binds

# From article PMC9177694
